Reference: article doi:10.1101/2021.06.16.448340 (bioRxiv, 2021)

T1: CtaD with Strep-tag, subunit I homologue of complex IV (Corynebacterium glutamicum) (UniProt Q79VD7)
T1 sequence: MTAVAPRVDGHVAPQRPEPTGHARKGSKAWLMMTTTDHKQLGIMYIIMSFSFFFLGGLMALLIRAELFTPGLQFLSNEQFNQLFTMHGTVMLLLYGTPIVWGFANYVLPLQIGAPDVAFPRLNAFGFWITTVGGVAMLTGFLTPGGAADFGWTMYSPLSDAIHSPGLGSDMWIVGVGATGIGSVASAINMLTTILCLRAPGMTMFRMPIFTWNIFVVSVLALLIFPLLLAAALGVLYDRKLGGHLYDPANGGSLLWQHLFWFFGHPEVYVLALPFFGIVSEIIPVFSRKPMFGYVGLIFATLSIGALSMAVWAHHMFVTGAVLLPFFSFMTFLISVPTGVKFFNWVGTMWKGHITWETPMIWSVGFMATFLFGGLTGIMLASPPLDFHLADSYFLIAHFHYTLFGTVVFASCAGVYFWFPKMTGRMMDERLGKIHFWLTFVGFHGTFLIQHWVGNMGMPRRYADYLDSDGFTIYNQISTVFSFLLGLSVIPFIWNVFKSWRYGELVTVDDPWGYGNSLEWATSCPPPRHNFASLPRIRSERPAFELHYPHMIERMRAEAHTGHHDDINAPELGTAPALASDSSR

B1: P24 (protein, UniProt Q8NNH6 1-181)
chain: MVRSLGCKAHFGTRQEVRNSTMAIKLSIDLSDATFAELSAVIGYAHQLGVDADEKLTFEGTVLNIEFDGDLQFDDVFDAFDEAEIELDNPREDGPIYADDLIDEDEDYRAQTKSQINDEVINEIRDGISSFVDGIVNGLGQGRRGGRYGDFGGPRGPRGPRNDGPFGPFGPFGPGYRGPRF
B2: QcrA, Rieske iron-sulfur (FeS) protein subunit of complex III (protein, UniProt Q79VE8 1-408)
chain: MSNNNDKQYTTQELNAMSNEDLARLGTELDDVTIAYRKERFPIANDPAEKRAARAVTFWLVLGIIGGLGFLATYIFWPWEYKAHGDEGLLAYTLYTPMLGITSGLCILSLGFAVVLYVKKFIPEEIAVQRRHDGPSEEVDRRTIVALLNDSWQTSTLGRRKLIMGLAGGGAVLAGLTIIAPMGGMIKNPWNPKEGPMDVQGDGTLWTSGWTLVENDVKVYLGRDTAAIAESHTDATGEHWSTTGVSRLVRMRPEDLAAASMETVFPLPAEMVNDGAEYDPAKDVYEHQMHSVHGPRNAVMLIRLRTADAEKVIEREGQESFHYGDYYAYSKICTHIGCPTSLYEAQTNRILCPCHQSQFDALHYGKPVFGPAARALPQLPITVDEEGYLIAAGNFIEPLGPAFWERKS
B3: CtaC, subunit II homologue of complex IV (protein, UniProt Q8NNK2 29-359)
chain: CEVAPPGGVLGDFLRMGWPDGITPEAVAMGNFWSWVWVAAWIIGIIMWGLFLTAIFAWGAKRAEKRGEGEFPKQLQYNVPLELVLTIVPIIIVMVLFFFTVQTQDKVTALDKNPEVTVDVTAYQWNWKFGYSEIDGSLAPGGQDYQGSDPERQAAAEASKKDPSGDNPIHGNSKSDVSYLEFNRIETLGTTDEIPVMVLPVNTPIEFNLASADVAHSFWVPEFLFKRDAYAHPEANKSQRVFQIEEITEEGAFVGRCAEMCGTYHAMMNFELRVVDRDSFAEYISFRDSNPDATNAQALEHIGQAPYATSTSPFVSDRTATRDGENTQSNA
B4: QcrC, di-heme cyt. cc subunit of complex III (protein, UniProt Q8NNK5 1-283)
chain: MAKPSAKKVKNRRKVRRTVAGALALTIGLSGAGILATAITPDAQVATAQRDDQALISEGKDLYDVACITCHGVNLQGVEDRGPSLVGVGEGAVYFQVHSGRMPILRNEAQAERKAPRYTEAQTLAIAAYVAANGGGPGLVYNEDGTLAMEELRGENYDGQITSADVARGGDLFRLNCASCHNFTGRGGALSSGKYAPNLDAANEQEIYQAMLTGPQNMPKFSDRQLSADEKKDIIAFIKSTKETPSPGGYSLGSLGPVAEGLFMWVFGILVLVAAAMWIGSRS
B5: CtaE, subunit of complex IV (protein, UniProt Q9AEL8 1-205)
chain: MTSAVGNTGMAAPQRVAALNRPNMVSVGTIVFLSQELMFFAGLFAMYFVSRANGLANGSWGEQTDHLNVPYALLITVILVSSSVTCQFGVFAAERGDVYGLRKWFLVTIILGSIFVIGQGYEYITLVGHGLTIQSSVYGSAFFITTGFHALHVIAGVMAFVVVLMRIHKSKFTPAQATAAMVVSYYWHFVDVVWIGLFITIYFIQ

target: T1, CtaD with Strep-tag, subunit I homologue of complex IV (Corynebacterium glutamicum); test: affinity purification with mass spectrometry

| Binder | binding |
| --- | --- |
| B1 | binds |
| B2 | binds |
| B3 | binds |
| B4 | binds |
| B5 | binds |

Results are given in words; binding and its absence hold for the method and conditions named. Binding seen in cells or lysates may run through a third protein. A yes stands for co-enrichment or nearness to the bait. Other partners may have been found. Where a sequence is shown, tags or fusion partners need not be part of it.
